Values quoted from earlier work in US10665326B2, “Deep proteome markers of human biological aging and methods of determining a biological aging clock” (INSILICO MEDICINE, INC., priority 2017, dated 2020).
For at least one compound, name, drawing or mass did not settle the structure.

Test system: age-associated DNA methylation changes
Details: Cole et al. 2017

Structure (SMILES): CO[C@H]1C[C@@H]2CC[C@@H](C)[C@@](O)(O2)C(=O)C(=O)N2CCCC[C@H]2C(=O)O[C@H]([C@H](C)C[C@@H]2CC[C@@H](O)[C@H](OC)C2)CC(=O)[C@H](C)/C=C(\C)[C@@H](O)[C@@H](OC)C(=O)[C@H](C)C[C@H](C)/C=C/C=C/C=C/1C [rapamycin]
- age-associated DNA methylation changes: suppression age-associated DNA methylation changes
